Some of the results follow.
biological target: OsWRKY34 (Oryza sativa, UniProt Q0JBA9 1-250); assay: protein-binding microarray (RPBM); PBS, 2% BSA, 51.3 ng/ul salmon testes DNA, 50 uM zinc acetate, 200 nM TF, 25 C, 1 h; high values mean tight binding; conditions: protein: recombinant; tags: N-terminal polyhistidine and DsRed monomer fusion (pET32a); label: CyDye5-dUTP incorporated in the synthesized complementary strand; 3' TTTTT single-stranded linker to array surface; dsDNA, one strand shown
Summary of the method: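 In PBS with 2% BSA, salmon testes DNA and 50 µM zinc acetate, 200 nM protein was incubated on a custom Agilent array at 25 °C for 1 h and then washed off. The array had been made double-stranded by primer extension with Cy5-dUTP and blocked with 2% BSA. The proteins were transcription factors fused N-terminally to polyhistidine and DsRed, expressed in E. coli BL21-CodonPlus and purified on Ni–NTA. The binding signal is per-feature fluorescence intensity (arbitrary units) from an Axon 4000B scanner.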

By UniProt entry, the sequences of proteins in these tests, tags left out.
UniProt Q0JBA9, entry or part of it: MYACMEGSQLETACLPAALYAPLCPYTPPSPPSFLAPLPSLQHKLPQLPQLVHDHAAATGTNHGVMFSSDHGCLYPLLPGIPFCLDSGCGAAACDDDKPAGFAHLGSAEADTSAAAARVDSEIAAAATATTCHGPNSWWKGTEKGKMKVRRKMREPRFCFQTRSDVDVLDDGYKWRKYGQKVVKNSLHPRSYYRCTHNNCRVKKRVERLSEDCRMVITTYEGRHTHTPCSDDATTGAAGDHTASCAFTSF

Sequence | binding signal
AGCACGAATCGATCTGATGACCTGTTCTCTTCTTCTATACCGGAGTCACCTAGTGCAG | 8600 fluorescence intensity (a.u.)
GGTGACATGATTTAAGACCAATTGTGTACTTTTACTATTTCGGAGTCACCTAGTGCAG | 8970 fluorescence intensity (a.u.)
TTTTCTCATATGTTTGACCATTCGTCTTATTCAAAAAATTCGGAGTCACCTAGTGCAG | 9000 fluorescence intensity (a.u.)
AGCTATACTATTACCGTTTTCACTGCCAATAACCGGCGACCGGAGTCACCTAGTGCAG | 8380 fluorescence intensity (a.u.)
GCGGATGGAATGGCAAGGGAGGAAACTGGTGGGGTGGGAGCGGAGTCACCTAGTGCAG | 8960 fluorescence intensity (a.u.)
AAGTTCATCCCGCTGTATCTATTTTGATTTAGACTAGCTTCGGAGTCACCTAGTGCAG | 8830 fluorescence intensity (a.u.)
ACAAATGACCACGATTTTTTACCTCCTCACCCTACTAGACCGGAGTCACCTAGTGCAG | 8210 fluorescence intensity (a.u.)
GTAGAGTTTGCGTGCGTGTCAGCGTGTGTTTATAGGAGTGCGGAGTCACCTAGTGCAG | 8120 fluorescence intensity (a.u.)
CCACGTCACCTCCTCCGCTATCCCGCGCGCCGCGCGGCGTCGGAGTCACCTAGTGCAG | 8820 fluorescence intensity (a.u.)
CTCAGTTCTCGATCGATCTCTTCTTCGTCTTCTGCGTCGTCGGAGTCACCTAGTGCAG | 13300 fluorescence intensity (a.u.)
GTTCTTGCTCTCATCTTGCTCGTGGCGTGGTAGTCTTCGACGGAGTCACCTAGTGCAG | 11300 fluorescence intensity (a.u.)
TCAGCAAGCACTTAACCAGTTTTGTATTCATCGTTTATTCCGGAGTCACCTAGTGCAG | 12200 fluorescence intensity (a.u.)
AAACTCTGGATTTCCGTGCCAACGTTTGACCGTCTGTCTTCGGAGTCACCTAGTGCAG | 8810 fluorescence intensity (a.u.)
ACTACTCTTTACTTGAACCTTGAACGTTTGCCCTTGTCAACGGAGTCACCTAGTGCAG | 14100 fluorescence intensity (a.u.)
CTGTTGACACTGCCCAGAGATACGAGCATGCATTTTCAAACGGAGTCACCTAGTGCAG | 9020 fluorescence intensity (a.u.)
AAGAAATTCGAATGGTTCCGTAGTCCATCACCCTCGCTCACGGAGTCACCTAGTGCAG | 8350 fluorescence intensity (a.u.)
TCAATGCCATCCTCATCATGGCAATCACAGCTTGTACGTACGGAGTCACCTAGTGCAG | 9690 fluorescence intensity (a.u.)
GGCTCGTCGGATCCTGCTGAATCTCGCGTCGGCGTCGGCGCGGAGTCACCTAGTGCAG | 8170 fluorescence intensity (a.u.)
TACACTTGCCCGGTCATAACCCTAACCATTTCTTCCCTTCCGGAGTCACCTAGTGCAG | 9660 fluorescence intensity (a.u.)
ACTTGATTTGCTTAAAGGTTTTTCTCGTCTCTAGTTAATTCGGAGTCACCTAGTGCAG | 12000 fluorescence intensity (a.u.)
ATGATAGCTTCTCCTCTACTATTAATACCCCTTCTACTTCCGGAGTCACCTAGTGCAG | 9260 fluorescence intensity (a.u.)

Sequence | binding signal
TCCCCGCAACCATTGTATTTCACGTGACCGCACCGTTGTCCGGAGTCACCTAGTGCAG | 9420 fluorescence intensity (a.u.)
GGTGGATTCATGGTGTGTTTAGAACAGTTTTGCTAATAGGCGGAGTCACCTAGTGCAG | 9130 fluorescence intensity (a.u.)
CCACCACTGTCCTTCTCGCTTGCCGTGCCTCATCACCGCCCGGAGTCACCTAGTGCAG | 8160 fluorescence intensity (a.u.)
TTCCCCGTGCCGTCCGCCGGAGCGGAGCACTCGTTACCATCGGAGTCACCTAGTGCAG | 8380 fluorescence intensity (a.u.)
ATACTAGGCTGTATCTCTCTCGCTCTCTTGTTGTTCCCTCCGGAGTCACCTAGTGCAG | 18200 fluorescence intensity (a.u.)
GGATCTTCCACCACCCGACTCCAAAGTCCTTCCTAACCCACGGAGTCACCTAGTGCAG | 8250 fluorescence intensity (a.u.)
CTCTATGTCTCGCCGTTGCTCCTCTACCTTGCTCTTTCAGCGGAGTCACCTAGTGCAG | 9470 fluorescence intensity (a.u.)
CGTAACGTGCCCGTCCGCTTCCGCGCCTCCTCGCCCGCCTCGGAGTCACCTAGTGCAG | 9690 fluorescence intensity (a.u.)
GGGGTGGTGGTGGTGGCGGCGGCAGTGTTGTTGGTCGCCGCGGAGTCACCTAGTGCAG | 13500 fluorescence intensity (a.u.)
CTCCGCTCCGCTCCACCGCCCGAGTGCTCGCCTGCCGCCGCGGAGTCACCTAGTGCAG | 9060 fluorescence intensity (a.u.)
CTCGTCGTCTCCTCCGCTCCTTGCGCCATCTCGCGGCTGACGGAGTCACCTAGTGCAG | 11500 fluorescence intensity (a.u.)
ACAACTTCTTGTTCAATCGACTTGTTTATTACTGATTTTACGGAGTCACCTAGTGCAG | 9340 fluorescence intensity (a.u.)
TCGAAACCCGTTCACCGCATATTTATCTGAACCTCGTACACGGAGTCACCTAGTGCAG | 8140 fluorescence intensity (a.u.)
AGATTATTATTCATTTGTAAATATACCGTTTGGCTTATTCCGGAGTCACCTAGTGCAG | 10700 fluorescence intensity (a.u.)
TCCCTTTTCTTATCCCATCCGTGGCCATCTCTGAAAAGGACGGAGTCACCTAGTGCAG | 10600 fluorescence intensity (a.u.)
CCTCCTCCTCACGCTCCGCGCGCCGCACGCCCGCCTCGCCCGGAGTCACCTAGTGCAG | 9000 fluorescence intensity (a.u.)
TTCTAAGAAATCCTTCAAGCGGCCGGCTTATCGCTTTATCCGGAGTCACCTAGTGCAG | 15800 fluorescence intensity (a.u.)
AAACAAGACCATAATGTATTAATCACTTGCGTTGACAACACGGAGTCACCTAGTGCAG | 8360 fluorescence intensity (a.u.)
AATTTGTGTACTAATAAATCAATTCGTTTTGCGGGCGGGACGGAGTCACCTAGTGCAG | 8380 fluorescence intensity (a.u.)
TGCACTTCACTCTTGTTCTTTTAACTTACTGTATGCATAACGGAGTCACCTAGTGCAG | 8080 fluorescence intensity (a.u.)
TTGCCAACGTGGAGGGGAGGAGACAGCCGGGGTGGTGCATCGGAGTCACCTAGTGCAG | 8270 fluorescence intensity (a.u.)

Another view of some results above.

| Sequence | binding signal |
| --- | --- |
| GGTGGATTCATGGTGTGTTTAGAACAGTTTTGCTAATAGGCGGAGTCACCTAGTGCAG | 9130 fluorescence intensity (a.u.) |
| CTCTATGTCTCGCCGTTGCTCCTCTACCTTGCTCTTTCAGCGGAGTCACCTAGTGCAG | 9470 fluorescence intensity (a.u.) |
| CTCGTCGTCTCCTCCGCTCCTTGCGCCATCTCGCGGCTGACGGAGTCACCTAGTGCAG | 11500 fluorescence intensity (a.u.) |
| ACAACTTCTTGTTCAATCGACTTGTTTATTACTGATTTTACGGAGTCACCTAGTGCAG | 9340 fluorescence intensity (a.u.) |
| TCGAAACCCGTTCACCGCATATTTATCTGAACCTCGTACACGGAGTCACCTAGTGCAG | 8140 fluorescence intensity (a.u.) |
| CCTCCTCCTCACGCTCCGCGCGCCGCACGCCCGCCTCGCCCGGAGTCACCTAGTGCAG | 9000 fluorescence intensity (a.u.) |
| TTCTAAGAAATCCTTCAAGCGGCCGGCTTATCGCTTTATCCGGAGTCACCTAGTGCAG | 15800 fluorescence intensity (a.u.) |
| AATTTGTGTACTAATAAATCAATTCGTTTTGCGGGCGGGACGGAGTCACCTAGTGCAG | 8380 fluorescence intensity (a.u.) |
| TTGCCAACGTGGAGGGGAGGAGACAGCCGGGGTGGTGCATCGGAGTCACCTAGTGCAG | 8270 fluorescence intensity (a.u.) |
